No constants are given. Whether binding was seen depends on the method and setting. In cells and extracts the contact can be indirect. Some binding calls cover weakened binding; strength is not graded here.
target: GST-STAT6 aa 677-847 (human); test: GST pull-down, in vitro translated 35S-labeled NCoA-1 fragments

Protein sequences, listed by entry. Tags and fused reporters are not part of them. Residues count along the entry.
NCoA-1 N-terminal fragment spanning amino acids 1 to 781 (P70365, residues 1-781): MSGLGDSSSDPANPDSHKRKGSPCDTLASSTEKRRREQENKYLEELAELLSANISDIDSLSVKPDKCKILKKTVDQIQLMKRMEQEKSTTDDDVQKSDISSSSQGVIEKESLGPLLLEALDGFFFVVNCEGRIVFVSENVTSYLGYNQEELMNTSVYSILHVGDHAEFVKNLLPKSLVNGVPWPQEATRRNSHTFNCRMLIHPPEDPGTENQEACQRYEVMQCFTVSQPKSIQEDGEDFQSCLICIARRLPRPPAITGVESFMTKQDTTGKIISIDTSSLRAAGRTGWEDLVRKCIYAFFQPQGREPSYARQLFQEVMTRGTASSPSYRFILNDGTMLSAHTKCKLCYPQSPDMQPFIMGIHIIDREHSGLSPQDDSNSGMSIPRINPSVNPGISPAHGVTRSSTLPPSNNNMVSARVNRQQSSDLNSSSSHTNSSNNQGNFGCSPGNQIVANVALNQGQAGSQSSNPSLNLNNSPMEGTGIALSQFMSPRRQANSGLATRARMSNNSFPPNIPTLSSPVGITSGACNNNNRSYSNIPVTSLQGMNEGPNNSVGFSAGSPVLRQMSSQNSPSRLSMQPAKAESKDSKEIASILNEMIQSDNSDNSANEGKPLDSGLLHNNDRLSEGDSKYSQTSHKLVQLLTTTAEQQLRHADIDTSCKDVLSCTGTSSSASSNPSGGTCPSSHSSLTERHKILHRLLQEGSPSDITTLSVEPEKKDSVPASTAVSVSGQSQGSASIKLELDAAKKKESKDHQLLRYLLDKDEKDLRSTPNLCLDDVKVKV
NCoA-1 fragment (1-571) (P70365, residues 1-571): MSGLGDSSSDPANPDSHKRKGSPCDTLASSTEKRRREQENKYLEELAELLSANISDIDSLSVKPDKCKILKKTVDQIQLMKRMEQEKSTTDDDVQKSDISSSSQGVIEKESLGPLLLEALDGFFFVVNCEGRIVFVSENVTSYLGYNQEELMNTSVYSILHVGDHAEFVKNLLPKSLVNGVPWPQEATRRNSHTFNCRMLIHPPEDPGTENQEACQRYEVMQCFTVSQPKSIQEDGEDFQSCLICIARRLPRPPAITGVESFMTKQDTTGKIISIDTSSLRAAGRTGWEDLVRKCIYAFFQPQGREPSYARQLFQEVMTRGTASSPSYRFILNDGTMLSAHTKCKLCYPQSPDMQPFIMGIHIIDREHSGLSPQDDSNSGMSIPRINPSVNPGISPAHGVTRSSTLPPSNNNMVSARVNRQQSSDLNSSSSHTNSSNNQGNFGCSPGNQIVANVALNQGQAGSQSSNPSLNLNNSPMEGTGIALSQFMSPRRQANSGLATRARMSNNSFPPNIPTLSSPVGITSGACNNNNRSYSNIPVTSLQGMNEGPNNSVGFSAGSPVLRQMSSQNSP

binding, binds:
NCoA-1 N-terminal fragment spanning amino acids 1 to 781 (from UniProt P70365 1-781)
NCoA-1 fragment (1-571) (from UniProt P70365 1-571)
NCoA-1 fragment comprising residues 213 to 462 (from UniProt P70365 213-462)

From US20030092619A1
